Reference: PubChem BioAssay AID1053208 (Peter MacCallum Cancer Centre, 2014)

Assay: 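Find knock-downs that sensitise mouse osteosarcoma cells to doxorubicin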 (primary screen)
Cell system: mouse osteosarcoma cells, early-passage culture from an engineered mouse model of fibroblastic bone tumour
Knock-down reagent: siRNA pool against mouse genes, 40 nM
Timing: about 120 h (48 h before drug, then 72 h with drug)
Treatment: doxorubicin 100 nM for 72 h, roughly 30-40% inhibitory dose
Measurement: 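Viability read as ATP luminescence after 72 h of 100 nM doxorubicin or none, duplicate wells averaged, scaled to non-targeting siRNA, then expressed as robust z-scores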
Reading the numbers: viability z-score with doxorubicin: higher = more viable cells under doxorubicin; viability z-score without drug: higher = more viable cells with knock-down alone
Hit rule: 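Called active if knock-down leaves viability unchanged without drug (z within -2 to 2) but lowers it with doxorubicin (z at or under -2)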
In all, the deposit lists about 17,000 reagents; shown is an unselected part. 788 of them (4.7%) were called active. 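Calls rest on z-score classes alone; an extra cut-off of viability at most 70% of control was not applied to them.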 Further read-outs or replicates are left out here.

How did the screen score Tnfrsf13b [SID152324287]?
combined z-score class: high cell count without drug only; viability z-score with doxorubicin: -1.12; viability z-score without drug: 2.02; Call: inactive

How did the screen score Fli1 [SID152304067]?
combined z-score class: low cell count with doxorubicin only; viability z-score with doxorubicin: -2.25; viability z-score without drug: 1.52; Call: active

With Arrdc3 [SID152328842], what was measured?
combined z-score class: no change with or without drug; viability z-score with doxorubicin: 0.79; viability z-score without drug: 0.34; Call: inactive

How did the screen score Commd8 [SID152334437]?
combined z-score class: no change with or without drug; viability z-score with doxorubicin: 1.91; viability z-score without drug: 1.35; Call: inactive

How did the screen score Pml [SID152263429]?
combined z-score class: no change with or without drug; viability z-score with doxorubicin: -0.9; viability z-score without drug: 0.17; Call: inactive

What is on record for Ptpru [SID152273433]?
combined z-score class: no change with or without drug; viability z-score with doxorubicin: 0.22; viability z-score without drug: -0.51; Call: inactive

What did the screen give for Slc10a1 [SID152274781]?
combined z-score class: no change with or without drug; viability z-score with doxorubicin: -1.57; viability z-score without drug: -1.52; Call: inactive

With Ptpa [SID152314931], what does the deposit list?
combined z-score class: no change with or without drug; viability z-score with doxorubicin: 0.9; viability z-score without drug: 1.35; Call: inactive

Which result is listed for Pfdn1 [SID152310034]?
combined z-score class: no change with or without drug; viability z-score with doxorubicin: 1.57; viability z-score without drug: 0; Call: inactive

With Nxnl1 [SID152299637], what was measured?
combined z-score class: low cell count with doxorubicin only; viability z-score with doxorubicin: -2.14; viability z-score without drug: 0.17; Call: active

What did the screen give for Sltm [SID152287586]?
combined z-score class: no change with or without drug; viability z-score with doxorubicin: -1.46; viability z-score without drug: -0.51; Call: inactive

For Mesp1 [SID152273989], what does the deposit list?
combined z-score class: no change with or without drug; viability z-score with doxorubicin: 0.9; viability z-score without drug: 0.17; Call: inactive

What is on record for Myocd [SID152283713]?
combined z-score class: no change with or without drug; viability z-score with doxorubicin: 1.35; viability z-score without drug: 0.84; Call: inactive

For Ccdc88c [SID152268627], what was measured?
combined z-score class: no change with or without drug; viability z-score with doxorubicin: 1.57; viability z-score without drug: 0.51; Call: inactive

What did the screen give for Vmn1r49 [SID152338217]?
combined z-score class: no change with or without drug; viability z-score with doxorubicin: 0; viability z-score without drug: 0.51; Call: inactive

How did the screen score Zc3h13 [SID152337825]?
combined z-score class: low cell count with doxorubicin only; viability z-score with doxorubicin: -2.25; viability z-score without drug: -0.84; Call: active

What is on record for Ehd2 [SID152337311]?
combined z-score class: low cell count with doxorubicin only; viability z-score with doxorubicin: -2.7; viability z-score without drug: 0.67; Call: active

What did the screen give for Fcer2a [SID152342986]?
combined z-score class: no change with or without drug; viability z-score with doxorubicin: -0.67; viability z-score without drug: 0; Call: inactive

What did the screen give for Ncbp3 [SID152317322]?
combined z-score class: no change with or without drug; viability z-score with doxorubicin: -1.12; viability z-score without drug: 0.51; Call: inactive

Ordered by “viability z-score without drug” (high to low): 5 of the entries above
Ptpa [SID152314931] → combined z-score class = no change with or without drug; viability z-score with doxorubicin = 0.9; viability z-score without drug = 1.35; Call = inactive
Pml [SID152263429] → combined z-score class = no change with or without drug; viability z-score with doxorubicin = -0.9; viability z-score without drug = 0.17; Call = inactive
Pfdn1 [SID152310034] → combined z-score class = no change with or without drug; viability z-score with doxorubicin = 1.57; viability z-score without drug = 0; Call = inactive
Ptpru [SID152273433] → combined z-score class = no change with or without drug; viability z-score with doxorubicin = 0.22; viability z-score without drug = -0.51; Call = inactive
Slc10a1 [SID152274781] → combined z-score class = no change with or without drug; viability z-score with doxorubicin = -1.57; viability z-score without drug = -1.52; Call = inactive

The results go on.
What did the screen give for Ampd2 [SID152260149]?
combined z-score class: no change with or without drug; viability z-score with doxorubicin: -0.67; viability z-score without drug: -0.51; Call: inactive

With Tox4 [SID152290141], what does the deposit list?
combined z-score class: no change with or without drug; viability z-score with doxorubicin: -0.79; viability z-score without drug: 0.34; Call: inactive

What did the screen give for Utp11 [SID152297739]?
combined z-score class: no change with or without drug; viability z-score with doxorubicin: -1.35; viability z-score without drug: -0.17; Call: inactive

What is on record for Kbtbd12 [SID152294833]?
combined z-score class: no change with or without drug; viability z-score with doxorubicin: -0.79; viability z-score without drug: -1.18; Call: inactive

How did the screen score Or52s1 [SID152264330]?
combined z-score class: low cell count with and without drug; viability z-score with doxorubicin: -3.37; viability z-score without drug: -3.2; Call: inactive

For Klra6 [SID152317498], what was measured?
combined z-score class: no change with or without drug; viability z-score with doxorubicin: 1.01; viability z-score without drug: -0.17; Call: inactive

What did the screen give for Or5an1 [SID152259305]?
combined z-score class: no change with or without drug; viability z-score with doxorubicin: -0.45; viability z-score without drug: -0.17; Call: inactive

What did the screen give for Or5an1 [SID152266150]?
combined z-score class: no change with or without drug; viability z-score with doxorubicin: 0.11; viability z-score without drug: 0.51; Call: inactive

For Cbfa2t3 [SID152295002], how do the results read?
combined z-score class: high cell count without drug only; viability z-score with doxorubicin: -0.22; viability z-score without drug: 2.19; Call: inactive

What did the screen give for A430072C10Rik [SID152323055]?
combined z-score class: no change with or without drug; viability z-score with doxorubicin: -1.12; viability z-score without drug: 1.85; Call: inactive

What did the screen give for Prss21 [SID152289407]?
combined z-score class: no change with or without drug; viability z-score with doxorubicin: 0.56; viability z-score without drug: -0.17; Call: inactive

What is on record for Rwdd2b [SID152327955]?
combined z-score class: no change with or without drug; viability z-score with doxorubicin: -1.12; viability z-score without drug: -0.84; Call: inactive

For Or52ad1 [SID152323289], how do the results read?
combined z-score class: low cell count with doxorubicin only; viability z-score with doxorubicin: -2.25; viability z-score without drug: -1.52; Call: active

With Uqcrq [SID152281438], how do the results read?
combined z-score class: no change with or without drug; viability z-score with doxorubicin: -0.45; viability z-score without drug: -1.35; Call: inactive

How did the screen score Actc1 [SID152330842]?
combined z-score class: no change with or without drug; viability z-score with doxorubicin: 0; viability z-score without drug: -0.67; Call: inactive

How did the screen score Adcy2 [SID152304194]?
combined z-score class: low cell count without drug only; viability z-score with doxorubicin: 1.57; viability z-score without drug: -6.74; Call: inactive

For Bbx [SID152295200], what was measured?
combined z-score class: no change with or without drug; viability z-score with doxorubicin: -0.45; viability z-score without drug: -0.51; Call: inactive
